# Results of single-concentration screens

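Whole-parasite assay of Trypanosoma brucei over 72 hours; the read-out is not stated. Compounds at 30 µM. Direction is inferred from retests: higher values go with stronger inhibition. Values scatter widely below zero; nearly all retest evidence comes from the higher of the two concentrations used. Of about 64,000 compounds tested this way, about 940 (1.5%) reached 50% or more in at least one test.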

Results are given as percent effect.
The controls that fix the scale are not given in the record; negative values are as filed.
Compounds were drawn at random from those tested, without regard to their results.

With O=C(O)C(F)(F)F.[H][C@@]12CCN(Cc3ccoc3)C[C@]1([H])O[C@H](C(=O)NC1CC1)C2 the screen gave -46.63%.
With Cc1ccc(N2CCC3(CCC(=O)N3)CC2)nn1 the screen gave -46.85%.
With [H][C@@]12CCN(c3ncccn3)[C@]1([H])CC[C@H](c1nc(C)no1)O2 the screen gave -93.72%.
With O=C(CCNS(=O)(=O)c1ccccc1F)NCc1ccoc1 the screen gave -20.95%.
With O=C(O)C(F)(F)F.O=C(O)C(F)(F)F.O=C(O)C(F)(F)F.c1ccc(CO[C@@H]2CO[C@@]3(CCN(Cc4ccccn4)C3)C2)nc1 the screen gave 38.67%.
With CCC(CC)n1ncc(C(=O)NS(=O)(=O)c2ccsc2)c1C the screen gave -23.26%.
With Cc1cnn(C2CN(C(C)c3nc(-c4ccccc4)no3)C2)c1 (centres undefined) the screen gave -30.19%.
With Cc1nc(C(C)C)sc1C(C)N(C)C(=O)c1ccc(=O)n(C)n1 (centres undefined) the screen gave -3.247%.
With O=C(COc1cccc2c1CCC2=O)NCCSc1ccccc1 the screen gave 35.11%.
With O=C(O)C(F)(F)F.[H][C@@]12C[C@@H](c3nc(C)no3)O[C@]1([H])CN(Cc1ccc3c(c1)OCO3)C2 the screen gave -34.68%.
With [H][C@]12CC[C@]([H])(CN(C(C)=O)C1)N(C(=O)CCc1n[nH]c3c1CCCC3)C2 the screen gave 22.02%.
With Cc1cc(C)c(CNC(=O)NCC2Cc3ccccc32)c(=O)[nH]1 (centres undefined) the screen gave 3.421%.
With Cc1cccc(OC2CCN(C(=O)NCc3cc[nH]n3)CC2)c1C the screen gave -32.06%.
With CN(C(=O)Nc1nncs1)C1CCN(c2ccccc2Cl)C1=O (centres undefined) the screen gave -17.9%.
With CC(C)NC(=O)c1ccc2c(c1)nc1n2CCN(Cc2ccco2)C1 the screen gave -8.027%.
With O=C(NCc1cc(O)ncn1)C1COc2ccccc2C1 (centres undefined) the screen gave 32.94%.
With Cc1csc(C(C)(C)NCC(=O)N(C)Cc2ccc(C)o2)n1 the screen gave -42.68%.
With O=c1cc(CN2CCCC2)nc2n1CCCN(CC1CC1)C2 the screen gave -14.14%.
With CN1CCN(c2ccc(NCc3ccc(OC(F)(F)F)cc3)cn2)CC1 the screen gave 24.27%.
With CCS(=O)(=O)c1ccc(N2CCC(N)CC2)cc1 the screen gave -10.56%.
With COc1cc(F)c(-n2cnc(CCNC(C)=O)c2)cc1F the screen gave -20.33%.
With CC(C)C1CCN(C(=O)NCC(=O)N(C)CC(F)(F)F)CC1 the screen gave -44.52%.
With CC(C)CN1CCCn2nc(CNC(=O)OCc3ccccc3)cc2C1 the screen gave -78.19%.
With CCc1nc(C)c(C(=O)NCCNC(=O)c2cccs2)s1 the screen gave -26.73%.
With COc1ccc(C)cc1NC(=O)Nc1cnc(N2CCN(C)CC2)nc1 the screen gave 53.87%.
With CCC(CC)c1nnc(NC(=O)N2CCC(C(N)=O)CC2)s1 the screen gave -11.31%.
With CC(=O)N1CCN(C(=O)CNc2c(C)cccc2OC(F)F)CC1 the screen gave 9.743%.
With CC(C)N(Cc1cccnc1)C(=O)CNc1ccc(C#N)cc1 the screen gave -480.8%.
With O=C(O)C(F)(F)F.O=C(O)C(F)(F)F.[H][C@]12CCN(C(=O)CCC)CC[C@@]1([H])S(=O)(=O)CCN2Cc1cccnc1 the screen gave 2.077%.
With Cc1ocnc1C(=O)N(C)[C@@H]1CC[C@@H](n2ccnc2C)[C@@H]1O the screen gave -0.492%.
With COCCN1C(=O)CC(N2CCN(c3ccc(F)cc3)CC2)C1=O (centres undefined) the screen gave -17.9%.
With [H][C@]12CCN(C(C)=O)[C@@]1([H])CC[C@H](COCc1csc(C)n1)O2 the screen gave -14.77%.
With O[C@H]1CC[C@@H](Cc2cc(-c3ccc(F)cc3)on2)O[C@@H]1CNCC1CC1 the screen gave 23.79%.
With CSc1[nH]c(=O)c(C(=O)N2CCCC2c2cccs2)cc1C#N (centres undefined) the screen gave -14.01%.
With C=C(C)CN1CCC(c2n[nH]c(C3CC3)n2)CC1 the screen gave -20.39%.
With O=C(O)C(F)(F)F.c1csc(CN2CCn3c(Cn4cncn4)cnc3C2)c1 the screen gave -144.4%.
With CC1CCN(CC(=O)NC(C#N)c2cnn(-c3ccccc3)c2)CC1 (centres undefined) the screen gave -20.51%.
With Cc1cc(C(=O)NCCN2CCN(S(C)(=O)=O)CC2)no1.Cl the screen gave -2.332%.
With Oc1cc(C2CCCCN2CC2CC2)nc(-c2ccncc2)n1 (centres undefined) the screen gave -11.28%.
With Nc1ncnc2nc(C3CCN(C(=O)Cc4ccccc4)C3)ccc12 (centres undefined) the screen gave -16.19%.
With Cc1cccc(C)c1NCc1noc(C2CC2)n1 the screen gave -53.93%.
With Cc1nc(O)c2nnn(C[C@H]3CCCN3C(=O)C(C)(C)C)c2n1 the screen gave 10.94%.
With CN(CC(=O)NC1(C)CCS(=O)(=O)C1)Cc1ccc(F)c(F)c1 (centres undefined) the screen gave -6.236%.
With Cn1nnnc1SCCNC(=O)CC1CCc2ccccc21 (centres undefined) the screen gave -6.029%.
With CCC(=O)N1CCC(c2nc(O)c3c(n2)CN(C2CCCCC2)CC3)C1 (centres undefined) the screen gave -10.48%.
With CC(C)N1CCC(N2CCC(C(=O)N(C)C)CC2)CC1.O=C(O)C(F)(F)F.O=C(O)C(F)(F)F the screen gave -22.06%.
With COCCN(Cc1ccc(F)cc1Cl)C(=O)c1ccccn1 the screen gave -68.66%.
With COc1ccc(C(C)Nc2ncnc3c2NC(=O)CN3)cc1 (centres undefined) the screen gave -24.22%.
With COc1cc(N2CC3(CCN(S(C)(=O)=O)C3)C2)ncn1.O=C(O)C(F)(F)F the screen gave -69.25%.
With Cc1nn(C)c(C)c1C1CCCN1CCCc1nc2ccccc2o1 (centres undefined) the screen gave 25.26%.

For reference, 3 entries once more:

{"compound": "O=C(O)C(F)(F)F.c1csc(CN2CCn3c(Cn4cncn4)cnc3C2)c1", "effect": -144.4}
{"compound": "Cc1nc(O)c2nnn(C[C@H]3CCCN3C(=O)C(C)(C)C)c2n1", "effect": 10.94}
{"compound": "Cc1ccc(N2CCC3(CCC(=O)N3)CC2)nn1", "effect": -46.85}

The values are deposited in ChEMBL (CHEMBL3988442, “University of Dundee, Small-Polar-MMV Screening Library” (2021)).